A short description of data set [1]: Mask cleaning effect. Conditions: ultrasonic frequency 40 kHz, 25° C., MASK of the red light of hole transporting layer completely cleaned. Here is the method: (3) Mask cleaning effect:
the time required for all the materials on the MASK of the red light of the hole transporting layer 203 to be completely cleaned at a fixed ultrasonic frequency of 40 kHz and at a temperature of 25° C.

A short description of data set [2]: Crosstalk test of OLED display panel (LGreen/LBlue). The note with it: intensity ratio of green light of adjacent pixels when blue light intensity was 0.1 Cd/m^2, dark room. Here is the method:
Performance tests of the OLED display panels in the Examples and Comparison Examples were carried out.
(2) Crosstalk test method: the program being transferred to the B screen in a dark room, testing the intensity ratio of the green light of adjacent pixels when the blue light intensity was 0.1 Cd/m^2, LGreen/LBlue;

In data set [1], `Cc1ccc(-c2ccc(N(c3ccc(-c4ccccc4)cc3)c3ccc(-c4ccc(N(c5ccc(-c6ccccc6)cc5)c5ccc(-c6ccc(C)cc6)cc5)cc4)cc3)cc2)cc1` [Com. Example 2] came in with a Mask cleaning time of 60 s. The LGreen/LBlue in data set [2] amounted to 1.8%.

Compound `Cc1ccc(-c2ccc(N(c3ccc(-c4ccccc4)cc3)c3ccc(-c4ccc(N(c5ccc(-c6ccccc6)cc5)c5ccc(-c6ccc(C)cc6)cc5)c5c4CCCC5)cc3)cc2)cc1` [Example 1] yielded a Mask cleaning time in data set [1] of 30 s. For the same compound, the LGreen/LBlue in data set [2] amounted to 1.8%.

Values taken from patent publication US10686136B2, “Hole transporting material, OLED display panel and electronic device comprising the same” (SHANGHAI TIANMA AM-OLED CO., LTD., priority 2016, dated 2020).
